The assay has as its target TEAD4 (endogenous, HEK293T) (human (endogenous in HEK293T)) (UniProt Q15561). The experiment in a line: co-IP; immunoprecipitation by TEAD4, whole cell extracts prepared with or without DNase I (10 μg/ml), Protein A/G beads.

The chains behind the UniProt entries cited, without tags or fusion partners.
UniProt Q15561: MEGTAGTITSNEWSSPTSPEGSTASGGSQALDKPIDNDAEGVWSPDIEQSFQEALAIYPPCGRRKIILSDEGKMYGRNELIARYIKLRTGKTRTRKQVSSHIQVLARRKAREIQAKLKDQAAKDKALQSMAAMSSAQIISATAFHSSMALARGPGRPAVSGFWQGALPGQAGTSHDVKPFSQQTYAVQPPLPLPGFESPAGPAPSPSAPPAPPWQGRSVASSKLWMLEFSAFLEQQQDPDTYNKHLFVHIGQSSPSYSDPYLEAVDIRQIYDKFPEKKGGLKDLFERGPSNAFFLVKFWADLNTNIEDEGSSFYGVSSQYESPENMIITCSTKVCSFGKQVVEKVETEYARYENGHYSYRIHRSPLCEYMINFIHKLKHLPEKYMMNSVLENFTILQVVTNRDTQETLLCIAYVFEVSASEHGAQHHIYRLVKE
UniProt Q9NQB0: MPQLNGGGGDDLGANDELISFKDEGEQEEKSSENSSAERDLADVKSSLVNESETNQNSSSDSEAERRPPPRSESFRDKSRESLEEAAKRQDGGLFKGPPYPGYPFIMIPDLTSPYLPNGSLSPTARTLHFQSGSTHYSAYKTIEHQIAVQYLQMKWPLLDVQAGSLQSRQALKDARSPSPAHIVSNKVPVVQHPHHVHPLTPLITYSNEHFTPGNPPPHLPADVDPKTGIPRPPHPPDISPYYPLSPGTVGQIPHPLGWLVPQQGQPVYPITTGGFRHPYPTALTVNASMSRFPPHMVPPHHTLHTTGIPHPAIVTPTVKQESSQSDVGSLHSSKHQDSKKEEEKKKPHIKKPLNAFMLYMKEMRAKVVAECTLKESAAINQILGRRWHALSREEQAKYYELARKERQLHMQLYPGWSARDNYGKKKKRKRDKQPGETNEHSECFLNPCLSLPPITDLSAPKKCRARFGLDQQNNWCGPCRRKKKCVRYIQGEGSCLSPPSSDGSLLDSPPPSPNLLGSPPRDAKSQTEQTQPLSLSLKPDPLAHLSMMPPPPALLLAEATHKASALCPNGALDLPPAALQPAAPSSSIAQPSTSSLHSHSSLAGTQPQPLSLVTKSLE

Results are given in words; binding and its absence hold for the method and conditions named. Binding seen in cells or lysates may run through a third protein. Some entries that bind do so weakly or less than the wild type.

With “TCF4 (endogenous, HEK293T) (from UniProt Q9NQB0 1-619)”, the binding entry is “binds”.

The values above are taken from publication PMC5216127.
